Laboratory results as given in US20240336674A1.
These are yes or no findings as the source states them, for the method shown. Some binding calls cover weakened binding; strength is not graded here.

Target: T1, Rabbit Sema3A (rabbit) (UniProt G1T285)
T1 sequence: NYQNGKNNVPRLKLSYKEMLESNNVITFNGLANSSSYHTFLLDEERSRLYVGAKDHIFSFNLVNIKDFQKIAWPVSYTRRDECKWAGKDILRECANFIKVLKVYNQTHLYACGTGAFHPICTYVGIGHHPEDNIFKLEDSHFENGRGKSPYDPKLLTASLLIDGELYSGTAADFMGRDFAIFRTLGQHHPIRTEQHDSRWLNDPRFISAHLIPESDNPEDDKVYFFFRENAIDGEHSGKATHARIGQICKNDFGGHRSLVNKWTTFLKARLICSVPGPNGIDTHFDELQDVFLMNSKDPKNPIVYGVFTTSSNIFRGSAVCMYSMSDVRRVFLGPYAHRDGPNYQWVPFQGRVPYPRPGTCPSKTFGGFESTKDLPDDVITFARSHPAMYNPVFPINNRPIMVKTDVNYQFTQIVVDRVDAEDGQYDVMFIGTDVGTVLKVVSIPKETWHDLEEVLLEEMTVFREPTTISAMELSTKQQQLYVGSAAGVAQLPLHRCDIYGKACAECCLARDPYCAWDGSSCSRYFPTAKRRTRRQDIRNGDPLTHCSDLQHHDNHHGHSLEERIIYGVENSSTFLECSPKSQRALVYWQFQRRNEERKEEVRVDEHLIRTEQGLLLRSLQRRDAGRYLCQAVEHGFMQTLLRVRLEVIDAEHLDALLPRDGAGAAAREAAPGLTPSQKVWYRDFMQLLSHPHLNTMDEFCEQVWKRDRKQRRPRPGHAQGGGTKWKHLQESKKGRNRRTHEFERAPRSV
Assay: biosensor GLM chip (BioRad), kinetic binding assay

B1: Antibody of the invention (clone I) (antibody, human IgG1, kappa, L234A L235A, V domains shown)
VH: EVQLVESGGGLVQPGGSLRLSCAASGFTFSSYYMSWVRQAPGKGLEWVSTIIKSGGYAYYPDSVKDRFTISRDNSKNTLYLQMSSLRAEDTAVYYCVRGGQGAMDYWGQGTTVTVSS
VL: EIVLTQSPATLSLSPGERATLSCRASQSIGDYLHWYQQKPGQAPRLLIKYASQSISGIPARFSGSGSGTDFTLTITSLEPEDFAVYYCQQGYSFPYTFGGGTKLEIKR
- binding: binds
